Experimental data reported in patent US6930208B2, “3-Keto- or 3- oxime-ether-substituted benzoylcyclohexanediones” (Bayer CropScience GmbH, priority 2002, dated 2005).
Some of these results come from one statement about several compounds together. For part of these data: At least one structure is not confirmed: it was looked up by name or label, or the drawing left a doubt. Some compounds share one range, which may span the group rather than tell each member.

How the values were obtained:
Test in all cases: Post-emergence herbicidal action against harmful plants
Type in all cases: in vivo
[1] = tested on: Chenopodium album; conditions: visual scoring after 3 to 4 weeks
[2] = tested on: Echinocloa crus galli; conditions: 320 g/ha, visual scoring after 3 to 4 weeks
[3] = tested on: Veronica persica; conditions: 320 g/ha, visual scoring after 3 to 4 weeks
[4] = tested on: Stellaria media; conditions: 80 g/ha, visual scoring after 3 to 4 weeks
[5] = tested on: Matricaria inodora; conditions: 80 g/ha, visual scoring after 3 to 4 weeks

CCS(=O)(=O)c1ccc(C(=O)C2C(=O)CCCC2=O)c(Cl)c1OCC(C)=O [Example 3.3, (2-chloro-3-(methylcarbonyl methoxy)-4-ethylsulfonylbenzoyl)-cyclohexane-1,3-dione]
90-100%: activity against Chenopodium album ([1]; 320 g/ha) | activity against Echinocloa crus galli [2] | activity against Veronica persica [3]

CCON=C(CC)COc1c(S(C)(=O)=O)ccc(C(=O)C2=C(O)CCCC2=O)c1Cl [Example 4.98]
90-100%: activity against Chenopodium album ([1]; 80 g/ha) | activity against Stellaria media [4] | activity against Matricaria inodora [5]

C=CCON=C(C)COc1c(S(C)(=O)=O)ccc(C(=O)C2=C(O)CCCC2=O)c1Cl [Example 4.19]
90-100%: activity against Chenopodium album ([1]; 80 g/ha) | activity against Stellaria media [4] | activity against Matricaria inodora [5]
